# Test results as given in PMC11253611, “The chaperone PrsA2 regulates the secretion, stability, and folding of listeriolysin O during Listeria monocytogenes infection” (mBio, 2024).
# Chains of the proteins cited; added tags and fusions are not shown. Residues count along the entry.
# UniProt P13128, residues 25-529: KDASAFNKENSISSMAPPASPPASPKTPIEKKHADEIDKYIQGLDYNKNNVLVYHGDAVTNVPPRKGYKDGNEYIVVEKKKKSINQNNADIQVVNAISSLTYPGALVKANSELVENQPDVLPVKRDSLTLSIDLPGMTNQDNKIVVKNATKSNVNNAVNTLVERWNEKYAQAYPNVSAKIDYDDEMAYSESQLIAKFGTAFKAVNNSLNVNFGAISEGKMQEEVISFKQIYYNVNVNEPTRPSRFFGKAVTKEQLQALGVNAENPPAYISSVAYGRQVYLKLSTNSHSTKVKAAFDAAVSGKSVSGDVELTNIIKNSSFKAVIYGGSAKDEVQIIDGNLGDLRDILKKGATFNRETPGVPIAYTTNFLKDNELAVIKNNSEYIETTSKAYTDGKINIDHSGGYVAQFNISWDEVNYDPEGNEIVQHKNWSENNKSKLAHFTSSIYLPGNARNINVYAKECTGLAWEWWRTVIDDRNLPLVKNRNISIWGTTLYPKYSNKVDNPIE
# These are yes or no findings as the source states them, for the method shown. Some results given as binding are weak or reduced against the parent protein; the word gives no strength.
# Molecular target: recombinant listeriolysin O (without the signal sequence, 25-529) (Listeria monocytogenes 10403S) (UniProt P13128)
# Assay: dynamic light scattering; recombinant LLO at pH 5.5 and pH 6.5, 37°C, over 15 min; both purified
substance,measurement,value
"recombinant listeriolysin O (without the signal sequence, 25-529) (from UniProt P13128 25-529)",binding,binds
